Measurements taken from the supplement of paper PMC9578143, “Small-Molecule Ebselen Binds to YTHDF Proteins Interfering with the Recognition of N^6-Methyladenosine-Modified RNAs” (ACS Pharmacology & Translational Science, 2022).
The list shows a part of the results. Part of the spread comes from offsets between plates or batches.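 Hits were defined as a z-score below −3.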

molecular target: T1, YTHDF1 YTH domain (aa 365-554) (UniProt Q9BYJ9); experiment: tryptophan fluorescence intensity z-score (mean); higher = higher fluorescence, less quenching (negative = binding / quenching); details: 10 µM
T1 sequence (whole entry): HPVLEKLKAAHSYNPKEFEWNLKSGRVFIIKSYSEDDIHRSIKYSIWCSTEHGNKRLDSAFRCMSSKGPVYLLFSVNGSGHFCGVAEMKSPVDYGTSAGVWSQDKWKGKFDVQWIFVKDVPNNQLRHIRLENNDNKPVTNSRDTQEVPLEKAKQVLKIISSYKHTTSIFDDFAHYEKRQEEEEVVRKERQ

Tryptophan fluorescence intensity z-score, inactive:
CC(=O)O[C@H]1C[C@@H](OC(C)=O)C(C)(C)C2C[C@@H](O)[C@]3(C)C(CC[C@@]4(C)[C@H](c5ccoc5)OC(=O)[C@H]5O[C@]543)[C@]21C (some centres undefined) (plate: M 13-14) 0.877, COc1ccc2c(c1)OCC(Cc1ccc(OC)c(OC(C)=O)c1)C2=O (centres undefined) (plate: M 15-16) 0.199, COc1ccc(-c2coc3c(OC)c(OC)cc(O)c3c2=O)cc1 (plate: M 15-16) -0.00599, CC(C)CCC[C@@H](C)[C@H]1CC[C@H]2[C@@H]3C(=O)C=C4C[C@@H](O)CC[C@]4(C)[C@H]3CC[C@]12C (plate: M 23-24) 0.147, Cc1cc(-n2c(=O)[nH]c(=O)n(C)c2=O)ccc1Oc1ccc(SC(F)(F)F)cc1 (plate: M 11-12) -1.11, CO[C@H]1[C@H](O)[C@@H](O)[C@H](O)[C@H](O)[C@H]1O (plate: M 19-20) 0.298, Cc1ccccc1N1C(=O)c2cc(S(N)(=O)=O)c(Cl)cc2NC1C (centres undefined) (plate: M 13-14) 0.824, CC1=C(CC(=O)O)c2cc(F)ccc2/C1=C\c1ccc([S+](C)[O-])cc1 (centres undefined) (plate: M 5-6) -0.00825, CCc1cccc2c3c([nH]c12)C(CC)(CC(=O)O)OCC3 (centres undefined) (plate: M 7-8) 0.847, Cc1noc(NS(=O)(=O)c2ccc(N)cc2)c1C (plate: M 5-6) 0.142, CCCCC(=O)O[C@]1(C(=O)CO)CC[C@H]2[C@@H]3CCC4=CC(=O)CC[C@]4(C)[C@H]3[C@@H](O)C[C@@]21C (plate: M 11-12) -0.0437, CN(C)CCCO[C@@H]1[C@H]2OC(C)(C)O[C@H]2O[C@@H]1[C@H](O)CO (plate: M 7-8) -0.0213, C[C@]12CC[C@@H]3c4ccc(O)cc4CC[C@H]3[C@@H]1C[C@@H](O)[C@@H]2O (plate: M 3-4) -0.679, Cc1cccc2c3c(ccc12)C1=C(C(=O)C3=O)[C@@H](C)CO1 (plate: M 21-22) -0.0302, CCOc1ccc(C(=O)c2ccc(O)c(O)c2O)cc1 (plate: M 15-16) -0.183, Cn1nnnc1SCC1=C(C(=O)O)N2C(=O)[C@@H](NC(=O)[C@H](OC=O)c3ccccc3)[C@H]2SC1 (plate: M 7-8) -0.186, CC(=O)N[C@@H](Cc1ccccc1)C(=O)O (plate: M 23-24) 0.546, CCOC(=O)[C@H](CCc1ccccc1)N[C@@H](C)C(=O)N1CCC[C@H]1C(=O)O (plate: M 7-8) 0.0367, C[C@H](CCC(=O)O)[C@H]1CC[C@H]2[C@@H]3CC[C@@H]4CCCC[C@]4(C)[C@H]3CC[C@]12C (plate: M 17-18) 0.301, N=C(N)NC(=O)c1nc(Cl)c(N2CCCCCC2)nc1N (plate: M 23-24) -0.034, OCC(O)C(O)C(O)C(O)C(O)CO (centres undefined) (plate: M 15-16) 0.366, COc1cc(O)c(C)c(O)c1 (plate: M 21-22) 0.695, N[C@@H](C(=O)N[C@@H]1C(=O)N2C(C(=O)O)=C(Cl)CS[C@H]12)c1ccccc1 (plate: M 5-6) 0.328, C[C@@H]1CC[C@@]2(OC1)O[C@H]1C[C@H]3[C@@H]4CC[C@@H]5C[C@@H](O)CC[C@]5(C)[C@H]4CC[C@]3(C)[C@H]1[C@@H]2C (plate: M 15-16) -0.0195, COc1ccc(-c2cc(C(F)F)nn2-c2ccc(S(N)(=O)=O)cc2)cc1F (plate: M 9-10) -0.647, CC(Oc1ccccc1)C(=O)N[C@@H]1C(=O)N2[C@@H]1SC(C)(C)[C@@H]2C(=O)O (some centres undefined) (plate: M 5-6) 0.0903, CN(C)[C@@H]1C(O)=C(C(N)=O)C(=O)[C@@]2(O)C(O)=C3C(=O)c4c(O)ccc(Cl)c4[C@@H](O)[C@H]3C[C@@H]12 (plate: M 1-2) -0.253, Cn1c([N+](=O)[O-])cnc1COC(N)=O (plate: M 7-8) 0.211, NC(N)=O (plate: M 5-6) -0.684, O=C(CC(=O)c1ccccc1)c1ccccc1 (plate: M 23-24) -0.284, CN(C)CC[C@@H](c1ccc(Cl)cc1)c1ccccn1 (plate: M 11-12) -0.496, Nc1c(Br)cc(Br)cc1CNC1CCC(O)CC1 (centres undefined) (plate: M 21-22) 0.278, CC(N)C12CC3CC(CC(C3)C1)C2 (centres undefined) (plate: M 11-12) -0.804, COC(=O)C(N)CS (centres undefined) (plate: M 23-24) 0.259, C[C@H]1C[C@@H]2[C@H]([C@@H](O)C[C@@]3(C)[C@H]2CC[C@]3(O)C(=O)COC(=O)CCC(=O)O)[C@@]2(C)C=CC(=O)C=C12 (plate: M 7-8) -0.0327, Nc1cc(-c2ccncc2)c[nH]c1=O (plate: M 23-24) 0.0292, CN(C)CCOC(=O)COc1ccc(Cl)cc1 (plate: M 23-24) 0.379, Cc1cc(O)c(C=O)c2c1C(=O)Oc1c(COC(=O)/C=C/C(=O)O)c(O)c(C(=O)O)c(C)c1O2 (plate: M 17-18) 0.463, N=C(N)N/N=C/c1c(Cl)cccc1Cl (plate: M 3-4) -0.251, OC(CCN1CCCCC1)(c1ccccc1)C1CCCCC1 (centres undefined) (plate: M 5-6) -0.327, O=C(OCc1ccccc1)c1ccccc1 (plate: M 7-8) -0.2, CCOC(=O)C(C)(C)Oc1ccc(Cl)cc1 (plate: M 9-10) -0.528, CO[C@@]1(NC(=O)CSCC#N)C(=O)N2C(C(=O)O)=C(CSc3nnnn3C)CS[C@@H]21 (plate: M 7-8) -0.234, C[C@@H]1[C@H](O)[C@@H](C)/C=C/C=C/C=C/C=C/C=C/C=C/C=C/[C@H](O[C@@H]2O[C@H](C)[C@@H](O)[C@H](N)[C@@H]2O)C[C@@H]2O[C@](O)(C[C@@H](O)C[C@@H](O)[C@H](O)CC[C@@H](O)C[C@@H](O)CC(=O)O[C@H]1C)C[C@H](O)[C@H]2C(=O)O (plate: M 1-2) -0.0188
